Assay results reported in the supplement of paper PMC12067093, “Discovery and optimisation of a covalent ligand for TRIM25 and its application to targeted protein ubiquitination” (Chemical Science, 2025).
The other results are listed elsewhere or left out.

The chains behind the UniProt entries cited, without tags or fusion partners. Where a name states a change or a piece, a line headed by the entry shows the natural chain unless it says otherwise.
UniProt P23588, whole entry, looked up: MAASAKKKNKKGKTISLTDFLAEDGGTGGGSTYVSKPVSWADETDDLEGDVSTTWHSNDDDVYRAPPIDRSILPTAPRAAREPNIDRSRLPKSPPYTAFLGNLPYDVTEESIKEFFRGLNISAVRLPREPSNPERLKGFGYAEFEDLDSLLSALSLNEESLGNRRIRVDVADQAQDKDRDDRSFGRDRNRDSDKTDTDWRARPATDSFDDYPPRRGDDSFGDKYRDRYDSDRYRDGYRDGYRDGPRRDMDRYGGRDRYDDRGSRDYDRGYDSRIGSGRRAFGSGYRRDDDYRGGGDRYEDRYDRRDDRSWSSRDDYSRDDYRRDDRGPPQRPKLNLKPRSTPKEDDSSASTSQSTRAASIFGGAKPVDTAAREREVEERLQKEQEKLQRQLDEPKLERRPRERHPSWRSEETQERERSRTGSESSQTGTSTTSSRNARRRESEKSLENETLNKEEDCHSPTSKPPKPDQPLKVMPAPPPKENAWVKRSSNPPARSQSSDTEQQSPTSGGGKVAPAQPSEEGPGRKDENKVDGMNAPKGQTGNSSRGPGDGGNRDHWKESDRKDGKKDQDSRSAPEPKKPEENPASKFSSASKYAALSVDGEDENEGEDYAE
UniProt Q09472, whole entry, looked up: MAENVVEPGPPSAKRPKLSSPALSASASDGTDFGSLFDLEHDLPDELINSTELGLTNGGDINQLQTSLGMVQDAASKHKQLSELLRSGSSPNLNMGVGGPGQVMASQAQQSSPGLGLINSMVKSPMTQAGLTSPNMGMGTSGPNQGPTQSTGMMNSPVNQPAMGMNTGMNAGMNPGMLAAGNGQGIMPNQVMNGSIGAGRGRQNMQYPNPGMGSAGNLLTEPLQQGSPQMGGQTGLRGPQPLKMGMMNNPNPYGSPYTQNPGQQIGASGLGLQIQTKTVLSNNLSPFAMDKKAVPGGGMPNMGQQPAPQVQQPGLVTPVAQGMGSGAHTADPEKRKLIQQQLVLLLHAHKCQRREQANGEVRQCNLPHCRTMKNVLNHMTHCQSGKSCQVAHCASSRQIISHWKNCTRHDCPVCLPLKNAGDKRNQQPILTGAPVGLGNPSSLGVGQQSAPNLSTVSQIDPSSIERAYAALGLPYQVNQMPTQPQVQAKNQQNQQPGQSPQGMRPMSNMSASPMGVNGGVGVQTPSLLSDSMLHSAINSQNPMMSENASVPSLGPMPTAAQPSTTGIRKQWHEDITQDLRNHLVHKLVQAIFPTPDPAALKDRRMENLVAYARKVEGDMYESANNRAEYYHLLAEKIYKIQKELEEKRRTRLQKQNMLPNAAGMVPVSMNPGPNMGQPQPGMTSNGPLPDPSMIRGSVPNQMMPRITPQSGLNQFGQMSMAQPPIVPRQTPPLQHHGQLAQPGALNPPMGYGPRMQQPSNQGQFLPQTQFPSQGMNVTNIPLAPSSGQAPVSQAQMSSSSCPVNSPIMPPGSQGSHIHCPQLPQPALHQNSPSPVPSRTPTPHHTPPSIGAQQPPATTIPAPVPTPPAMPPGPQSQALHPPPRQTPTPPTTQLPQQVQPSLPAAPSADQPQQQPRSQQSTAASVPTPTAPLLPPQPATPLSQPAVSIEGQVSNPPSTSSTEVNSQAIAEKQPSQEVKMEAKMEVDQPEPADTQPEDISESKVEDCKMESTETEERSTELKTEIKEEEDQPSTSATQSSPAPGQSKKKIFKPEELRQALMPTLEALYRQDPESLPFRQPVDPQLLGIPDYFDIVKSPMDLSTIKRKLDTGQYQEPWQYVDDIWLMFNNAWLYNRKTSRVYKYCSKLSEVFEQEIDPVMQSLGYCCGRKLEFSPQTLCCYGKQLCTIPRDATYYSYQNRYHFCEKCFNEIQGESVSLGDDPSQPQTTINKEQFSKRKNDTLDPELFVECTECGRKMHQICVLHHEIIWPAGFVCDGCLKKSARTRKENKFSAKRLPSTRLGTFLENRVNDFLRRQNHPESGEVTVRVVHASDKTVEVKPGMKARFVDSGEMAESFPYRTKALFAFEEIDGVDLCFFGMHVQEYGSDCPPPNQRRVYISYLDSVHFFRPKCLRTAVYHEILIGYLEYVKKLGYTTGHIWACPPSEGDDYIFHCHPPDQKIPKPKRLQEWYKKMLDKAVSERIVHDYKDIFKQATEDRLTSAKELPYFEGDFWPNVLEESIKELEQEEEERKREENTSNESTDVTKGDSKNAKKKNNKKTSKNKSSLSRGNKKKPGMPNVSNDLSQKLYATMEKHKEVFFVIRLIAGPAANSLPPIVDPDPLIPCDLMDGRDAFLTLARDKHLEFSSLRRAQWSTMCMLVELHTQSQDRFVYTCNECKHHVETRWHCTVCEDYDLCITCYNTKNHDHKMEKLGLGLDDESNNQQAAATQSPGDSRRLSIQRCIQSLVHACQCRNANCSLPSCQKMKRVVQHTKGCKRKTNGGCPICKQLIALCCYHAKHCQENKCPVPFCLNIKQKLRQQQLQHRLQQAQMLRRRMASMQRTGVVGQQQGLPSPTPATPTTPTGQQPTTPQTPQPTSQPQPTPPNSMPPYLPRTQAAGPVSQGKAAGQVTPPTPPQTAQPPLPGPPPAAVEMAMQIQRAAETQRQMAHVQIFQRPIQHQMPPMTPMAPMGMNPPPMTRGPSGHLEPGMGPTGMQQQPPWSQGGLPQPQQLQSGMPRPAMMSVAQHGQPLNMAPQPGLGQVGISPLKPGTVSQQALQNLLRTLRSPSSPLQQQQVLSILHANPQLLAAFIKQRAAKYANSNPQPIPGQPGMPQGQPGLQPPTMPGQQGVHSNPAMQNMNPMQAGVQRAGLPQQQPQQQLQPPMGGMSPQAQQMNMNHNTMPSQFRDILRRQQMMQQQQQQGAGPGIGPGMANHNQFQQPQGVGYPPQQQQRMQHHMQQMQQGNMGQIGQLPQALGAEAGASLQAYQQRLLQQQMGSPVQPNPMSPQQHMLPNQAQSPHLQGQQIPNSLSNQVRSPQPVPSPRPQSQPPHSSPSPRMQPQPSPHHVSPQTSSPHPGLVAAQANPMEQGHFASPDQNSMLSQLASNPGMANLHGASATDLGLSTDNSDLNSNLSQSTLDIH
UniProt P17813: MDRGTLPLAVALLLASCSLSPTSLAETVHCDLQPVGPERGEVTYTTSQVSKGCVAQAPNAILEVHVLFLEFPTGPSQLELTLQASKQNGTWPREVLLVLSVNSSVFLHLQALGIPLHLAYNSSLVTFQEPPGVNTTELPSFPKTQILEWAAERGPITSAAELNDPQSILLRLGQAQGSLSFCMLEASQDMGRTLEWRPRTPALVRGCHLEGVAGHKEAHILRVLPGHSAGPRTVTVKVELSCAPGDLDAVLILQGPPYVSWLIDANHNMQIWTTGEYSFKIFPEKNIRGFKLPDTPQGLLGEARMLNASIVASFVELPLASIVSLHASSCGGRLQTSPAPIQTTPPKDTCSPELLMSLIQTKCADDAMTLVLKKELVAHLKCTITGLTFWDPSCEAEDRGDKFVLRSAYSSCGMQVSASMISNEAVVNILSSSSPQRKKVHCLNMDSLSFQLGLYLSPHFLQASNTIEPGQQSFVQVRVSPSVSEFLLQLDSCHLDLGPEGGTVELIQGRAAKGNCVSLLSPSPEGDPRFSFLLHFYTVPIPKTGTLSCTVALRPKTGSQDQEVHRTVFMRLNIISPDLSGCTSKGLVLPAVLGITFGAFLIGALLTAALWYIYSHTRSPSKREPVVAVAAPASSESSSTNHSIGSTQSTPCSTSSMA
UniProt Q96EB1: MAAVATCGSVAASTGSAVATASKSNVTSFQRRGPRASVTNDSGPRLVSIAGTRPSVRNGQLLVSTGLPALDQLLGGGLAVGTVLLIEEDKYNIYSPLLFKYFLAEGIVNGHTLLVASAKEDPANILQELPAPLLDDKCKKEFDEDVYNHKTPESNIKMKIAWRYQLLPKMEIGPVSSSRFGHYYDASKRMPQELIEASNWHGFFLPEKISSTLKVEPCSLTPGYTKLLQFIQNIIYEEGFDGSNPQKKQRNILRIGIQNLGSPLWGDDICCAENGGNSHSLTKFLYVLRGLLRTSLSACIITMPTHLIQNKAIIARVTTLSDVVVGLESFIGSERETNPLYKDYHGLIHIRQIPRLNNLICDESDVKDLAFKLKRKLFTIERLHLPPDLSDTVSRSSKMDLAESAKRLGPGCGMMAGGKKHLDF
UniProt Q6PCB8: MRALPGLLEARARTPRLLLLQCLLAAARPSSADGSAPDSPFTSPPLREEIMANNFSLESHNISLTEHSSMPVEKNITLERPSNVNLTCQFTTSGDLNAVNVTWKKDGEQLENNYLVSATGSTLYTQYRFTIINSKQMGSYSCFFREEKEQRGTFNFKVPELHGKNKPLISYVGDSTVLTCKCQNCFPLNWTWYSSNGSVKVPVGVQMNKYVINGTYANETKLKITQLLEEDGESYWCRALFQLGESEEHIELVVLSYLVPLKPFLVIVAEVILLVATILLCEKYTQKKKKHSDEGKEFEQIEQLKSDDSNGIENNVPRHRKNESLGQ
UniProt O60841: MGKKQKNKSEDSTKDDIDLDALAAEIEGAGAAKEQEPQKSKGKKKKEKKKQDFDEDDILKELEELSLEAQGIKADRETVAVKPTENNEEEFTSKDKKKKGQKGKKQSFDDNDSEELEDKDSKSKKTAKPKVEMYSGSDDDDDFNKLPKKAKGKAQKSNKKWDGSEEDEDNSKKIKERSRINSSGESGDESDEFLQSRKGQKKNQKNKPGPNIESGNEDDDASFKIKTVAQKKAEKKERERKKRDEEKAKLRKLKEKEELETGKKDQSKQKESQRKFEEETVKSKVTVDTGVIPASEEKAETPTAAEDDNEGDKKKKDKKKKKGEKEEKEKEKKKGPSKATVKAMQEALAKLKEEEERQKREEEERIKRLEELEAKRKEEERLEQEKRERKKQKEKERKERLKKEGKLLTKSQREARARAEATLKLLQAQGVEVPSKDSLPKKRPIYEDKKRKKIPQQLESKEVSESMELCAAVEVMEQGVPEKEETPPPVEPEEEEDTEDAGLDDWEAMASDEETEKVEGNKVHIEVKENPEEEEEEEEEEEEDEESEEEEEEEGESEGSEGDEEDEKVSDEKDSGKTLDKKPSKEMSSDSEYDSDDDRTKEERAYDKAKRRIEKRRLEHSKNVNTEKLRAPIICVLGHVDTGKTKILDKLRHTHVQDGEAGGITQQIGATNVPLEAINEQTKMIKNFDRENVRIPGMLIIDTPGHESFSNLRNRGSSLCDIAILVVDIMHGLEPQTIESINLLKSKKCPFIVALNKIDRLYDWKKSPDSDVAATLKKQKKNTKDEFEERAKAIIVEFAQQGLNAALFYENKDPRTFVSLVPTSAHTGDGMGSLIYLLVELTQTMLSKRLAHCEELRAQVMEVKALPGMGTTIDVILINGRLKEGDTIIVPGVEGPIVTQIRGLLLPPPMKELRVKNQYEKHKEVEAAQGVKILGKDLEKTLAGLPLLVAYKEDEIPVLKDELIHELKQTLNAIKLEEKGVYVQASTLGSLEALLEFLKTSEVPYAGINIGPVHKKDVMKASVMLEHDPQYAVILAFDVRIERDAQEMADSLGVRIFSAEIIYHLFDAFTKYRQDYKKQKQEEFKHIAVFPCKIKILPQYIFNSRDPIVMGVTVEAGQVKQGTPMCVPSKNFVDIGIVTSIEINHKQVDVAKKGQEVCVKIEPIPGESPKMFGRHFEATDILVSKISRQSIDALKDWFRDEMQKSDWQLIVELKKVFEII
UniProt Q92556, whole entry, looked up: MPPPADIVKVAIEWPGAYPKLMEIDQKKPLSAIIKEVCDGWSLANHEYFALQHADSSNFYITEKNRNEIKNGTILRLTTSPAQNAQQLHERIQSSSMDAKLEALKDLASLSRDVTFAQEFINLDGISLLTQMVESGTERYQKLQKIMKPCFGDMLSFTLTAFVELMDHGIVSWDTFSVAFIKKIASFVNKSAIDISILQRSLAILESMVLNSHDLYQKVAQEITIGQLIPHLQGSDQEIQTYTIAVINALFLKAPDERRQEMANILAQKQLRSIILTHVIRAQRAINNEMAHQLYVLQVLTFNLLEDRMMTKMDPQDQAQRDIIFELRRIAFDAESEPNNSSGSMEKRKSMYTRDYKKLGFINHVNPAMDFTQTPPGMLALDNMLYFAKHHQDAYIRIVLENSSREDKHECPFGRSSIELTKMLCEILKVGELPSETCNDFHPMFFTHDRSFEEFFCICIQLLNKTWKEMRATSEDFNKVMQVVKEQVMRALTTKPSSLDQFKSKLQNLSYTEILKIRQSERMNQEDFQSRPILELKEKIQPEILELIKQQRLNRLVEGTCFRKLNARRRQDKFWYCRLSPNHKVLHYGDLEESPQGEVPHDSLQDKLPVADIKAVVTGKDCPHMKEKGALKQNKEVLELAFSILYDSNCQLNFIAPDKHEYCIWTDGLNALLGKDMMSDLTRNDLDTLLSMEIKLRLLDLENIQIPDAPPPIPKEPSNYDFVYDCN
UniProt Q15369, whole entry, looked up: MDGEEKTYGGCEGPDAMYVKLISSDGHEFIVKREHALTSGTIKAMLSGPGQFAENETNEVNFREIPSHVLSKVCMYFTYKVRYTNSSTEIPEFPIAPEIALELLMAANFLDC

Compound: CC1Cc2ccccc2N1C(=O)C1CCCN(C1)C(=O)CCl (mixture of isomers) [TRIM25 ligand 11 (diastereomer mixture)]
Test: probe-labelled cysteine peptide fold change vs DMSO (competition) (log2 fold change); higher = less target engagement (more negative = stronger competition)
Conditions: THP-1, incubation time: 4 h
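Further: competitive chemoproteomic profiling in live THP-1 cells with an iodoacetamide desthiobiotin (IA-DTB) probe, comparing probe-labelled peptide intensities in compound-treated cells against DMSO-treated controls.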

Target	probe-labelled cysteine peptide fold change (10 µM)	probe-labelled cysteine peptide fold change (50 µM)
EIF4B_P23588_457_EEDCHSPTSKPPKPDQPLK (UniProt P23588)	0.117	-0.106
EP300_Q09472_364_QCNLPHCR (UniProt Q09472)	0.0578	0.0375
EPHX2_P34913_522_GHIEDCGHWTQMDKPTEVNQILIK (UniProt P34913)	-0.128	-0.242
ENG_P17813_582_LNIISPDLSGCTSK (UniProt P17813)	-0.0335	-0.124
ELAC2_Q9BQ52_51_RGPSGCSGGPNTVYLQVVAAGSR (UniProt Q9BQ52)	0.0651	-0.0115
ELP4_Q96EB1_412_LGPGCGMMAGGK (UniProt Q96EB1)	-0.091	-0.264
EMB_Q6PCB8_142_QMGSYSCFFR (UniProt Q6PCB8)	0.0371	0.0881
EPRS_P07814_623_VTWLAETTHALPIPVICVTYEHLITK (UniProt P07814)	0.125	0.261
EIF5B_O60841_853_LAHCEELR (UniProt O60841)	-0.000337	-0.0257
ELL_P55199_595_CEYLHSK (UniProt P55199)	0.0432	0.107
EIF3M_Q7L2H7_125_YTVYCSLIK (UniProt Q7L2H7)	-0.0302	0.306
ELMO1_Q92556_411_EDKHECPFGR (UniProt Q92556)	-0.0619	-0.114
ELOC_Q15369_11_TYGGCEGPDAMYVK (UniProt Q15369)	-0.0586	-0.117
ELP5_Q8TE02_52+61_SALCGEQVHILGCEVSEEEFREGFDSDINNR (UniProt Q8TE02)	-0.0628	-0.191

Looked up above:
Entry for ELMO1_Q92556_411_EDKHECPFGR (UniProt Q92556) under probe-labelled cysteine peptide fold change (10 µM): -0.0619
Entry for EP300_Q09472_364_QCNLPHCR (UniProt Q09472) under probe-labelled cysteine peptide fold change (50 µM): 0.0375
